No constants are given. Whether binding was seen depends on the method and setting. For some assays here: Binding seen in cells or lysates may run through a third protein. Some entries that bind do so weakly or less than the wild type. For some assays here: Where a sequence is shown, tags or fusion partners need not be part of it.
B1: GF14c protein unlabeled with a stable isotope (protein)
chain: MSREENVYMAKLAEQAERYEEMVEYMEKVAKTVDVEELTVEERNLLSVAYKNVIGARRASWRIVSSIEQKEEGRGNEEHVTLIKEYRGKIEAELSKICDGILKLLDSHLVPSSTAAESKVFYLKMKGDYHRYLAEFKTGAERKEAAESTMVAYKAAQDIALADLAPTHPIRLGLALNFSVFYYEILNSPDKACNLAKQAFDEAISELDTLGEESYKDSTLIMQLLRDNLTLWTSDLTEDGGDEVKEASKGDACEGQ

By UniProt entry, the sequences of proteins in these tests, tags left out. Where a name states a change or a piece, a line headed by the entry shows the natural chain unless it says otherwise.
UniProt Q93WI9: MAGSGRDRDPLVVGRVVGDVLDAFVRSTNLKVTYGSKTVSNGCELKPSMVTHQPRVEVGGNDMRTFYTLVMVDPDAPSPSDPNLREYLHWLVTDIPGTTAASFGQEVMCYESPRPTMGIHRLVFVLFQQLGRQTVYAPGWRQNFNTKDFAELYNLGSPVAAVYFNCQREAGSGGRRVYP

How the values were obtained:
[1] = target: T1, GST-fused GF14c protein (full-length GF14c, residues 1 to 256) (rice) (UniProt Q6ZKC0); assay: in vitro GST pull-down, GST-GF14c on glutathione resin, SDS-PAGE
T1 sequence: B1 chain

[2] = target: 15N stable isotope-labeled Hd3a protein (rice) (UniProt Q93WI9); assay: 15N-HSQC NMR, 0.2 mM 15N-Hd3a with GF14c at a molar ratio of 1:0.5

Molecule | binding [1] | binding [2]
full-length Hd3a (residues 1 to 179), not fused with GST (from UniProt Q93WI9 1-179) | binds | 
B1 |  | binds

Reference: patent US20130019345A1 (NATIONAL UNIVERSITY CORPORATION NARA INSTITUTE OF SCIENCE …, published 2013)
